Laboratory results published in article PMC8689518.
These are yes or no findings as the source states them, for the method shown. In cells and extracts the contact can be indirect. Some entries that bind do so weakly or less than the wild type.

Protein sequences, listed by entry. Tags and fused reporters are not part of them.
UniProt Q9UMN6: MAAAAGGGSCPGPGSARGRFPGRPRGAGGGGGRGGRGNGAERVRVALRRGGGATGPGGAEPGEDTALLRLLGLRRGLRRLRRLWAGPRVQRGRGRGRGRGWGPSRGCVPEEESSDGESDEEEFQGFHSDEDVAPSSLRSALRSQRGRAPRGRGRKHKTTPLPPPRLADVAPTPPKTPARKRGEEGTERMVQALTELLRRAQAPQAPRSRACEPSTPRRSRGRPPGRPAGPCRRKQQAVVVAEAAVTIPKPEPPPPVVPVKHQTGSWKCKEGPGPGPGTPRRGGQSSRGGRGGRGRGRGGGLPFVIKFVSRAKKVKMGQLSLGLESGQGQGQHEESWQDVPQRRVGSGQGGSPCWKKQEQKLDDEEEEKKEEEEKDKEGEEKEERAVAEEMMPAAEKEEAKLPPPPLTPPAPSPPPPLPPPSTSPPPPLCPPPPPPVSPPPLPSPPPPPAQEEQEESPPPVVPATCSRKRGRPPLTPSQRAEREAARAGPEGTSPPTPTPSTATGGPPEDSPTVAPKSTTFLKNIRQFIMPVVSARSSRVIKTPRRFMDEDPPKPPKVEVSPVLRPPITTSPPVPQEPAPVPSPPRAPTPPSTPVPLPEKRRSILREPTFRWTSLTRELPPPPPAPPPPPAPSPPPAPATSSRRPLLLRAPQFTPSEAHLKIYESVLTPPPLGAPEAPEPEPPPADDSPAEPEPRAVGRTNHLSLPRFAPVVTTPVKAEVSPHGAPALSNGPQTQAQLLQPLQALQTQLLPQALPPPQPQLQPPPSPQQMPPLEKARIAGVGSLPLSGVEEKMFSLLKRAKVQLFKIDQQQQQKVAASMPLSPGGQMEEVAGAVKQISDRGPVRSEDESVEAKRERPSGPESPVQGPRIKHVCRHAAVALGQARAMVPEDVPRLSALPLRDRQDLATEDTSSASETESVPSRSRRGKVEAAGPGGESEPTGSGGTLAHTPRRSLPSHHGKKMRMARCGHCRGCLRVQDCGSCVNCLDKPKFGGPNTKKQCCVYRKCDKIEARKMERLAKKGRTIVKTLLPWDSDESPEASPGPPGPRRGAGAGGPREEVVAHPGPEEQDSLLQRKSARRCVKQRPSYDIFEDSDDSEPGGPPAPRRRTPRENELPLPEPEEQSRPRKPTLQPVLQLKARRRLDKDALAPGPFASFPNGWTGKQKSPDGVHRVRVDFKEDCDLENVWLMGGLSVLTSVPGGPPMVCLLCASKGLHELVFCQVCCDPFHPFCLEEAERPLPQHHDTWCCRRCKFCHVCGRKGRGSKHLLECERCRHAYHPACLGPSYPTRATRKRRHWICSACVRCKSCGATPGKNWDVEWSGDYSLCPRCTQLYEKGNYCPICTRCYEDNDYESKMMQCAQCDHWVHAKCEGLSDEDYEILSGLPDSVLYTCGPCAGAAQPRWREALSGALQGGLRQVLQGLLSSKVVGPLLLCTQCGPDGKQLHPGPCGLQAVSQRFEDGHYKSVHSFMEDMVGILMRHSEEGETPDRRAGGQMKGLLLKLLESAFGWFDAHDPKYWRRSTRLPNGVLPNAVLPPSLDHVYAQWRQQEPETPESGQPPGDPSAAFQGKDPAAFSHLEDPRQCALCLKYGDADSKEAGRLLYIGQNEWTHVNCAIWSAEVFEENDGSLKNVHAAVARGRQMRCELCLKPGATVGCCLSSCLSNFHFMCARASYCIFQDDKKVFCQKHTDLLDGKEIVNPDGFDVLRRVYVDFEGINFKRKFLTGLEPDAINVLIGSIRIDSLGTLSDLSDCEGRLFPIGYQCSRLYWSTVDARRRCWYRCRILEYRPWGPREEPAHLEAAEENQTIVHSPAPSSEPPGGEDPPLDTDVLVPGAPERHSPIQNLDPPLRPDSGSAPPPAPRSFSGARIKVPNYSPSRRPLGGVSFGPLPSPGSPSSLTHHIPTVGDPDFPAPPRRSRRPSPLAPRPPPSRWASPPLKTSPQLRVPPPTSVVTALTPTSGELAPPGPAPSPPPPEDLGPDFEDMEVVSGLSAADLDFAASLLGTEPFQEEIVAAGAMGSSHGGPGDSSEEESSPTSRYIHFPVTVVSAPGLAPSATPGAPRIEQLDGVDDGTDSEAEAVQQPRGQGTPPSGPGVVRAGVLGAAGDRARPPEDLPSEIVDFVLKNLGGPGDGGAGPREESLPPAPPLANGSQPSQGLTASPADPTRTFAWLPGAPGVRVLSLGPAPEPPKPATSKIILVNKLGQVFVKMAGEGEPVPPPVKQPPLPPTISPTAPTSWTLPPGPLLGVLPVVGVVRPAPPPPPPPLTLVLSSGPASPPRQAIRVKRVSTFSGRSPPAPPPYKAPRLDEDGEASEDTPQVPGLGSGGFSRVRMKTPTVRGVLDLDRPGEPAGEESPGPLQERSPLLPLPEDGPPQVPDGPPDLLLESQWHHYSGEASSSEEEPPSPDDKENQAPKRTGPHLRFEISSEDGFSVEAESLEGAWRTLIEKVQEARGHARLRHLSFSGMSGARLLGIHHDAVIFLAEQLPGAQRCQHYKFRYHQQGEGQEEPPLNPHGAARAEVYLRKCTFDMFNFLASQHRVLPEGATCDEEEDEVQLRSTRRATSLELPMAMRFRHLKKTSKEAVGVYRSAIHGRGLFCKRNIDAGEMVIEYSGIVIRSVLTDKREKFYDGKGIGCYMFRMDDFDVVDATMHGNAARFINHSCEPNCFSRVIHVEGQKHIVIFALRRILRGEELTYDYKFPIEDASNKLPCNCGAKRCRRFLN
UniProt O15047: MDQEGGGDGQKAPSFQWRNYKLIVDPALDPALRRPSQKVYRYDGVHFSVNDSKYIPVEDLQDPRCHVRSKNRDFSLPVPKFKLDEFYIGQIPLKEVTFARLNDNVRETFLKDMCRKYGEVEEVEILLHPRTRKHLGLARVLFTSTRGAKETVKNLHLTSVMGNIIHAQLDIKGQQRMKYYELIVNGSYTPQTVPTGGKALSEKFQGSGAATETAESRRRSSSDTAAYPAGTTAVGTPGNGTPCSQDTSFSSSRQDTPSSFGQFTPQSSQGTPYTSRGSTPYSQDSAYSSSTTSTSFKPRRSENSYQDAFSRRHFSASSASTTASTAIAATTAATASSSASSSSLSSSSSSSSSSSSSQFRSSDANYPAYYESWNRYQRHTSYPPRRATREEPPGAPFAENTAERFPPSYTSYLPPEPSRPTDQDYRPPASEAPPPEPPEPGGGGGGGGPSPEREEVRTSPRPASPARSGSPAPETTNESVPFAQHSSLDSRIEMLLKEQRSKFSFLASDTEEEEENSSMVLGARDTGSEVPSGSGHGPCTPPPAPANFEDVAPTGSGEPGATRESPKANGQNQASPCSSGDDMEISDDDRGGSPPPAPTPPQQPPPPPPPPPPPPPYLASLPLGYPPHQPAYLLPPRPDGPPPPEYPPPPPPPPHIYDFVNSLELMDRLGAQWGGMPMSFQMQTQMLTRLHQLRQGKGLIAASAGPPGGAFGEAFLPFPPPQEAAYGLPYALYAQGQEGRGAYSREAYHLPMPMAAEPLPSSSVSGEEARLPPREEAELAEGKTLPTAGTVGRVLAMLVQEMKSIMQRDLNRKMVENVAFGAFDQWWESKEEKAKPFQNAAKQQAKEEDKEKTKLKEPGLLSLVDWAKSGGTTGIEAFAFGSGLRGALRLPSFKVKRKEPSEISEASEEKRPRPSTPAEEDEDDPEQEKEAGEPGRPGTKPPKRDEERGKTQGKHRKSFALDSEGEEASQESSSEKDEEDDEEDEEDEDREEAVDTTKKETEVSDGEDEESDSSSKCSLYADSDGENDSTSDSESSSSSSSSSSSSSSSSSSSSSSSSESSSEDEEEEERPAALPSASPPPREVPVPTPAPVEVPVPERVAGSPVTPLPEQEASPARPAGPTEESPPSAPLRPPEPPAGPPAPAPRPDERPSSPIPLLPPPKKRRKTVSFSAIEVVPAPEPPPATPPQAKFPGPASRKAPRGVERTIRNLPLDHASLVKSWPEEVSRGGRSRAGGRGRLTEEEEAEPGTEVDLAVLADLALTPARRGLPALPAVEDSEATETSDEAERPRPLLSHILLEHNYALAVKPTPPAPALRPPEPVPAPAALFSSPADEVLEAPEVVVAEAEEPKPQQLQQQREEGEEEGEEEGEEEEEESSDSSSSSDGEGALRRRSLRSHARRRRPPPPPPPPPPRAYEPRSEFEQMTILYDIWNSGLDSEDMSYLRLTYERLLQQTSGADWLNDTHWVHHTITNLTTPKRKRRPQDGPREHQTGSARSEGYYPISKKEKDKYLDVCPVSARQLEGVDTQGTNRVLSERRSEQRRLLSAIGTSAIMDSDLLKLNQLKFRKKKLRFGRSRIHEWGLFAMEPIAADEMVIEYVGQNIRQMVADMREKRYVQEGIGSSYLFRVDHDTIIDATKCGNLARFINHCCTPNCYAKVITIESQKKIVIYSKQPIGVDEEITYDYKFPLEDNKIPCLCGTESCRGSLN

Biological target: FLAG-GRWD1 (glutamate-rich WD repeat containing 1) (human (cDNA of 293T cells)) (UniProt Q9BQ67)
Experiment: co-IP; FLAG-tagged bait expressed in 293T cells, anti-FLAG M2 affinity gel; lysates treated with Benzonase 1 h at 4°C and precleared with mouse IgG-agarose; endogenous prey detected by Western blot

## endogenous MLL2 (myeloid/lymphoid or mixed-lineage leukemia 2) (from UniProt Q9UMN6 1-2715) (enzyme)
  binding: binds

## endogenous SET1A (from UniProt O15047 1-1707) (enzyme)
  binding: binds

## endogenous MLL1 (from UniProt Q03164 1-3969) (enzyme)
  binding: binds
